Tested on: intact FGF23 (iFGF23)
Experiment: Example 3 trial: serum intact FGF23
Assay type: in vivo, human
Conditions: mean ± standard error; unit from the 3rd table
Description: Study visits were on Days 0 (when iron was infused), 1 (24 hours after iron infusion), 7, 14, and 35. The primary objectives were to determine the effect of iron deficiency on cFGF23 and iFGF23 levels and the effect of intravenous iron on iFGF23 and cFGF23 levels.
Randomization occurred centrally via a fax-based system. […] The complete dose was infused over 15 minutes on day 0. […] An initial test dose of 25 mg was administered slowly over 5 minutes.
Laboratory testing of blood and three-hour urine collections was performed at the screening visit and on study days 0 (when iron was infused), 1 (24 hours after iron infusion), 7, 14, and 35 (see e.g., FIG. 2A). […]
Blood and urine samples were sent to a central laboratory for analysis (Covance Central Laboratory Service, Indianapolis, Ind.). Hemoglobin, blood counts, iron indices, electrolytes, and serum and urinary phosphate and creatinine were measured with standard, automated, multi-analyte techniques. Urinary fractional excretion of phosphate (FEPi) was calculated from the three-hour, morning urine collections as urinary phosphate x serum creatinine/serum phosphate x urinary creatinine. Serum levels of 25-hydroxyvitamin D and 1,25-dihydroxyvitamin D were measured in duplicate by radioimmunoassay (DiaSorin, Stillwater, Minn.) with intra-assay coefficients of variation (CV)<11.6%. […]

polynuclear iron (III)-hydroxide 4(R)-(poly-(1→4)-O-α-glucopyranosyl)-oxy-2(R),3(S),5(R),6-tetrahydroxy-hexanoate [FCM]
Intact FGF23, Baseline: 28.6 ± 1.4 pg/mL

Source: patent US20140162974A1, “METHODS FOR MODULATION OF PHOSPHORUS AND FGF23” (Luitpold Pharmaceuticals, Inc., priority 2012, published 2014)
